Results are given in words; binding and its absence hold for the method and conditions named. For some of these results: In cells and extracts the contact can be indirect. Some results given as binding are weak or reduced against the parent protein; the word gives no strength. For some of these results: Tags and fused reporters may be left off the sequences shown.
T1: HA.Pex13.1 (Trypanosoma brucei) (UniProt Q388D2)
T1 sequence: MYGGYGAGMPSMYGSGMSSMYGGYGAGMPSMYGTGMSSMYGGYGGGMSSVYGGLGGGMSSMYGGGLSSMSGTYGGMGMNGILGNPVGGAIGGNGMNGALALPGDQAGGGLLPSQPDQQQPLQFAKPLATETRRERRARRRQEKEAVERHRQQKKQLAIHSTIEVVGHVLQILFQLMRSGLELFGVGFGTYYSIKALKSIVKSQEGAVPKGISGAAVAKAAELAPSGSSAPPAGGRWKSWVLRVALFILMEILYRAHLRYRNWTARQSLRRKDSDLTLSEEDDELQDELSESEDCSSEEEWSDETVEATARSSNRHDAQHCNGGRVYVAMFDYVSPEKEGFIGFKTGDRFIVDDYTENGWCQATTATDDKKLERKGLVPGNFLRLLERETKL

T2: Pex13.1 (Trypanosoma brucei (endogenous in procyclic-form 2913 cells)) (UniProt Q388D2)
T2 sequence: T1 sequence

T3: Pex13.2 (Trypanosoma brucei (endogenous in procyclic-form 2913 cells)) (UniProt Q38E51)
T3 sequence: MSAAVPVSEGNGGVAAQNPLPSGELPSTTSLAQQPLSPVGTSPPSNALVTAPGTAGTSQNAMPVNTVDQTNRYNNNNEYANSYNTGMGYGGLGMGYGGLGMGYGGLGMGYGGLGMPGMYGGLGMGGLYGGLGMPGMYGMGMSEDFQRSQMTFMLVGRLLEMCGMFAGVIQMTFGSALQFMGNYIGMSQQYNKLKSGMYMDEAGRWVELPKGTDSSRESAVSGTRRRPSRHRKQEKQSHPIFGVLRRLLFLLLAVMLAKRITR

T4: myc.Pex13.2 (Trypanosoma brucei) (UniProt Q38E51)
T4 sequence: T3 sequence

B1: myc.Pex13.2 (protein, UniProt Q38E51 1-262)
chain: T3 sequence
B2: Pex14 (protein, UniProt Q38CL4 1-366)
chain: MSLLLSGVVDDGKSKPEVEHTHSEREKRVSNAVEFLLDSRVRRTPTSSKVHFLKSKGLSAEEICEAFTKVGQPKTLNEIKRILSERPYVPTGPNSQHMTQPLRDESADSVPTPHPNQSRRHTSLLYAPQAPPLPEAAAATRGVDWRDLVIGAGAAVIGGFAAFKAFQLYSPYEIRLKDEGSKPRSRRSRRGGRHASSDSEAERSLVHREVPALPVPAIPVASESHVDAKQAEIERLKTELKETQEALEAEKKGKAELSITLGKLRGQVTAYSRTNEKQESQIKSLQEEVNRLKSEIERKEDSAKVNANSNVEETLDSKEEGLPSSDTESSNPNGASSEVARDTQQQDGPAPLSTETDGTVVGGEAA
B3: HA.Pex13.1 (protein, UniProt Q388D2 1-391)
chain: T1 sequence
B4: Pex13.2 (protein, UniProt Q38E51 1-262)
chain: T3 sequence

What was measured:
[1] = target: T1, HA.Pex13.1 (Trypanosoma brucei); test: co-IP; cells co-expressing HA.Pex13.1 and myc.Pex13.2 incubated with DTSSP (2.5 M [sic]) for 30 min before hypotonic lysis (second lysate with 0.5% IGEPAL); lysates incubated overnight at 4°C with anti-HA or anti-myc magnetic beads; washed with 5x TBS-T; SDS-PAGE and Western blot; parental PF 2913 cells as control
[2] = target: T2, Pex13.1 (Trypanosoma brucei (endogenous in procyclic-form 2913 cells)); test: native gel or EMSA; 2-dimensional blue native PAGE (4-16% Bis-Tris) then SDS-PAGE and Western blot; organelle-enriched (glycosome) fraction of PF 2913 cells solubilised in 1% n-dodecyl-β-D-maltoside sample buffer
[3] = target: T3, Pex13.2 (Trypanosoma brucei (endogenous in procyclic-form 2913 cells)); test: as above
[4] = target: T4, myc.Pex13.2 (Trypanosoma brucei); test: co-IP; cells co-expressing HA.Pex13.1 and myc.Pex13.2 incubated with DTSSP (2.5 M [sic]) for 30 min before hypotonic lysis (second lysate with 0.5% IGEPAL); lysates incubated overnight at 4°C with anti-HA or anti-myc magnetic beads; washed with 5x TBS-T; SDS-PAGE and Western blot; parental PF 2913 cells as control

Binder	binding [1]	binding [2]	binding [3]	binding [4]
B1	binds			
B2	binds	binds	binds	binds
B3				binds
B4		binds		

Reference: paper PMC7031615
